{"source": "patent US20230414557A1", "about": "“NEW THERAPY CONCEPT FOR THE TREATMENT OF CORONA INFECTIONS, ESPECIALLY COVID-19 INFECTIONS” (priority 2020, published 2023)", "test_system": "IL-1beta", "test": "LPS-stimulated production of IL-1beta in human monocytes in vitro (ELISA)", "format": "cell-based", "details": "dexamethasone at subtherapeutic doses (10^−9 mol/l)", "experimental": "In cell culture supernatants, the production of IL-1beta is determined by ELISA (Cayman Chemical, Ann Arbor, Michigan, USA).", "note": "At least one structure is not confirmed: it was looked up by name or label, or the drawing left a doubt.", "data": [{"compound": "C[C@@H]1C[C@H]2[C@@H]3CCC4=CC(=O)C=C[C@]4(C)[C@@]3(F)[C@@H](O)C[C@]2(C)[C@@]1(O)C(=O)CO", "note": "[dexamethasone, 9-fluoro-16alpha-methylprednisolone]", "values": [{"measurement": "monocyte IL-1beta production, result in words", "value": "does not cause significant inhibition"}]}]}
